{
  "source": "patent US20140100272A1",
  "about": "“METHODS OF ADMINISTERING COMPOSITIONS COMPRISING DOCOSAPENTAENOIC ACID” (Matinas BioPharma, Inc., priority 2012, published 2014)",
  "origin": "cited, not measured here",
  "key": {"[1]": {"test_system": "patients with very high triglycerides (TG>500 mg/dL)"}, "[2]": {"test_system": "patients on statin therapy with high triglycerides (TG 200-499 mg/dL)"}},
  "note": "Read-outs that look alike come from different tables or passages of the source. At least one compound was matched to its structure with a doubt left.",
  "data": [
    {"molecule": "CC/C=C\\C/C=C\\C/C=C\\C/C=C\\C/C=C\\CCCC(=O)OCC", "note": "[Vascepa, EPA ethyl ester]", "values": [
      {"measurement": "Apo-B % change vs. Placebo", "setting": "[1]; 2 gram/day", "result": "−2.6", "unit": "%"},
      {"measurement": "HDL-C % change vs. Placebo", "setting": "[1]; 2 gram/day", "result": 1.5, "unit": "%"},
      {"measurement": "LDL-C % change vs. Placebo", "setting": "[1]; 2 gram/day", "result": 5.2, "unit": "%"},
      {"measurement": "Non-HDL-C % change vs. Placebo", "setting": "[1]; 2 gram/day", "result": "−8.1", "unit": "%"},
      {"measurement": "Total-C % change vs. Placebo", "setting": "[1]; 2 gram/day", "result": "−6.8", "unit": "%"},
      {"measurement": "Apo-B % change vs. Placebo", "setting": "[1]; 4 gram/day", "result": "−8.5", "unit": "%"},
      {"measurement": "HDL-C % change vs. Placebo", "setting": "[1]; 4 gram/day", "result": "−3.6", "unit": "%"},
      {"measurement": "LDL-C % change vs. Placebo", "setting": "[1]; 4 gram/day", "result": "−2.3", "unit": "%"},
      {"measurement": "LDL-C % change vs. Placebo", "setting": "[1]; 4 gram/day, listed as AMR101", "result": "slightly and non-significantly changed"},
      {"measurement": "TG % change vs. Placebo", "setting": "[1]; 4 gram/day, listed as AMR101/VASCEPA", "result": "significantly reduced"},
      {"measurement": "Apo-B % change vs. Placebo", "setting": "[2]; 2 gram/day", "result": "−3.8", "unit": "%"},
      {"measurement": "HDL-C % change vs. Placebo", "setting": "[2]; 2 gram/day", "result": "−2.2", "unit": "%"},
      {"measurement": "LDL-C % change vs. Placebo", "setting": "[2]; 2 gram/day", "result": "−3.6", "unit": "%"},
      {"measurement": "Non-HDL-C % change vs. Placebo", "setting": "[2]; 2 gram/day", "result": "−5.5", "unit": "%"},
      {"measurement": "Apo-B % change vs. Placebo", "setting": "[2]; 4 gram/day", "result": "−9.3", "unit": "%"},
      {"measurement": "HDL-C % change vs. Placebo", "setting": "[2]; 4 gram/day", "result": "−4.5", "unit": "%"},
      {"measurement": "LDL-C % change vs. Placebo", "setting": "[2]; 4 gram/day", "result": "−6.3", "unit": "%"},
      {"measurement": "LDL-C % change vs. Placebo", "setting": "[2]; 4 gram/day, listed as AMR101", "result": "decreased"},
      {"measurement": "Non-HDL-C % change vs. Placebo", "setting": "[2]; 4 gram/day, listed as AMR101", "result": "more potent than LOVAZA"},
      {"measurement": "TG % change vs. Placebo", "setting": "[2]; 4 gram/day, listed as AMR101", "result": "significantly reduced"}
    ]}
  ]
}
